Here are results for 19 sequences from US6297019.

Chains of the proteins cited; added tags and fusions are not shown. Chains listed by the source or under a name are the forms on record and can include a tag or linker.
CPF (endogenous CYP7 promoter-binding factor in HepG2 nuclear extract) (Homo sapiens), one chain, as listed by the source: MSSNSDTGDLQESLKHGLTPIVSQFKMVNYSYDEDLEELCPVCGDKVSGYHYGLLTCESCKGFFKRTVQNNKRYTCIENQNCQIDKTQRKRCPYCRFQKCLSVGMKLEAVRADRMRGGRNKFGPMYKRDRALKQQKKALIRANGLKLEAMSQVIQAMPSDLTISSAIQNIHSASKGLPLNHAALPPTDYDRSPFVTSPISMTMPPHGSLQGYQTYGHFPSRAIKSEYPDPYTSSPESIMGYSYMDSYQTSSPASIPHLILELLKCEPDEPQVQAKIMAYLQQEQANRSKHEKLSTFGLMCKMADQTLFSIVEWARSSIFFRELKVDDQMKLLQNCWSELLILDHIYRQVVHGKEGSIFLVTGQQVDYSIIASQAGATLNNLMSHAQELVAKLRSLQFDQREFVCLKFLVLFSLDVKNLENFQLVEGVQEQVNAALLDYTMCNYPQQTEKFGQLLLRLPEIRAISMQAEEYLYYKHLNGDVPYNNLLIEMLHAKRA

Where cells or extracts were used, other partners may take part. Negatives hold for the conditions tested.

In the first data set the test system is CPF (endogenous CYP7 promoter-binding factor in HepG2 nuclear extract) (Homo sapiens). Put plainly: EMSA. To be noted: 5 mM MgCl2, 100 mM KCl, room temperature, protein in an extract, label: 32P. (A gel shift assay detects complexes by their altered migration in electrophoresis.)
On to “TCTGATACCTGTGGACTTAGTTCAAGGCCAGTTA (double strand) [CYP7 promoter wild-type oligo]”, for which the binding result is reported as “binds”.

The data set is the same for the next values; noted with them: protein in an extract, variant of CYP7 promoter wild-type oligo.
On to “TCTGATACCTGTGGACTTAGTAAGAGGCCAGTTA (double strand) [SEQ 28 oligo]”, for which the binding result is given as “no binding”.

As to “TCTGATACCTGTGGACTTAGTACCAGGCCAGTTA (double strand) [SEQ 26 oligo]”, the binding result is on record as “no binding”.

As to “TCTGATACCTGTGGACTTAGTAGAAGGCCAGTTA (double strand) [SEQ 17 oligo]”, the binding result was “no binding”.

With “TCTGATACCTGTGGACTTAGTAGGAGGCCAGTTA (double strand) [SEQ 27 oligo]”, the binding result is “no binding”.

On to “TCTGATACCTGTGGACTTAGTCAAAGGCCAGTTA (double strand) [SEQ 25 oligo]”, for which the binding result was “no binding”.

In the case of “TCTGATACCTGTGGACTTAGTCTCAGGCCAGTTA (double strand) [SEQ 30 oligo]”, the binding result is given as “no binding”.

Consider “TCTGATACCTGTGGACTTAGTTCAAGGAGAGTTA (double strand) [SEQ 21 oligo]”, for which the binding result is recorded as “no binding”.

On to “TCTGATACCTGTGGACTTAGTTCAAGGCCAATTA (double strand) [SEQ 23 oligo]”, for which the binding result is listed as “binds”.

On to “TCTGATACCTGTGGACTTAGTTCAAGGCCAGGTA (double strand) [SEQ 24 oligo]”, for which the binding result was “binds”.

“TCTGATACCTGTGGACTTAGTTCAAGGCCTATTA (double strand) [SEQ 22 oligo]”: the binding result is on record as “no binding”.

Turning to “TCTGATACCTGTGGACTTAGTTCAAGTCCAGTTA (double strand) [SEQ 20 oligo]”, the binding result is “no binding”.

As for “TCTGATACCTGTGGACTTAGTTCAATGCCAGTTA (double strand) [SEQ 19 oligo]”, the binding result is “no binding”.

As to “TCTGATACCTGTGGACTTAGTTCTTGGCCAGTTA (double strand) [SEQ 18 oligo]”, the binding result is “no binding”.

For the sequence “TCTGATACCTGTGGACTTAGTTTCAGGCCAGTTA (double strand) [SEQ 29 oligo]”, the binding result is “no binding”.

On to “TCTGATACCTGTTATATTAGTTCAAGGCCAGTTA (double strand) [SEQ 13 oligo]”, for which the binding result was “binds”.

“TCTGATACCTGTTATATTCTATCAAGGCCAGTTA (double strand) [SEQ 15 oligo]”: the binding result was “binds”.

Consider “TCTGGAGGATGTGGACTTAGTTCAAGGCCAGTTA (double strand) [SEQ 12 oligo]”, for which the binding result is on record as “binds”.

Take “TCTGGAGGATGTGGACTTCTATCAAGGCCAGTTA (double strand) [SEQ 14 oligo]”: the binding result is on record as “binds”.
